# According to the supplement of paper PMC11438910:
# The list shows a part of the results. Most of these values are background signal.
# Tests used:
# Experiment in all cases: fluorescence intensity of antibody binding to polysaccharide-coupled beads; higher = stronger binding
# [1] = biological target: pneumococcal polysaccharide Pn7A
# [2] = biological target: pneumococcal polysaccharide Pn7B
# [3] = biological target: pneumococcal polysaccharide Pn7C
# [4] = biological target: pneumococcal polysaccharide Pn7F
# [5] = biological target: pneumococcal polysaccharide Pn8
# [6] = biological target: pneumococcal polysaccharide Pn9A
# [7] = biological target: pneumococcal polysaccharide Pn9L
# [8] = biological target: pneumococcal polysaccharide Pn9N
# [9] = biological target: pneumococcal polysaccharide Pn9V
# [10] = biological target: pneumococcal polysaccharide C-Poly-1
# [11] = biological target: pneumococcal polysaccharide C-Poly-2
# [12] = biological target: pneumococcal polysaccharide Pn1
# [13] = biological target: pneumococcal polysaccharide Pn10A
# [14] = biological target: pneumococcal polysaccharide Pn10B
# [15] = biological target: pneumococcal polysaccharide Pn10C
# [16] = biological target: pneumococcal polysaccharide Pn10F
# [17] = biological target: pneumococcal polysaccharide Pn11A
# [18] = biological target: pneumococcal polysaccharide Pn11B
# [19] = biological target: pneumococcal polysaccharide Pn11C
# [20] = biological target: pneumococcal polysaccharide Pn11D
# [21] = biological target: pneumococcal polysaccharide Pn11F
# [22] = antibody concentration 2.8593 ng/mL
# [23] = antibody concentration 15.2894 ng/mL
# [24] = antibody concentration 81.7561 ng/mL
# [25] = antibody concentration 437.17 ng/mL
# [26] = antibody concentration 2337.65 ng/mL
# [27] = antibody concentration 12500 ng/mL
# [28] = antibody concentration 0.1 ng/mL
# [29] = antibody concentration 0.534724 ng/mL
binder,measurement,setting,value
4-99.1 (protein) chain 1: QVQLQESGPGLVKPSETLSLTCAVSGDSISSGYFWGWIRQPPGKGLEYIGYISGESGNTYDNPSLKSRVTISKDTSKNQFSLNLRSVTAADTAVYYCARRTVYIGFDYWGQGVLVTVSS chain 2: QAAPTQPPSVSGSPGQSVTISCTGTSSDIGYYNAVSWYQQHPGKAPKLMIYEVSKRPSGVSDRFSGSKSGTTASLTISGLQAEDEADYYCSSYAGTNTYIFGAGTRLTVL,fluorescence intensity,[1]; [22],22 MFI
same,fluorescence intensity,[1]; [23],20 MFI
same,fluorescence intensity,[1]; [24],21.2 MFI
same,fluorescence intensity,[1]; [25],25 MFI
same,fluorescence intensity,[1]; [26],64.5 MFI
same,fluorescence intensity,[1]; [27],518 MFI
same,fluorescence intensity,[2]; [28],16.5 MFI
same,fluorescence intensity,[2]; [29],15.5 MFI
same,fluorescence intensity,[2]; [22],16.8 MFI
same,fluorescence intensity,[2]; [23],16.5 MFI
same,fluorescence intensity,[2]; [24],16 MFI
same,fluorescence intensity,[2]; [25],17.5 MFI
same,fluorescence intensity,[2]; [26],25.5 MFI
same,fluorescence intensity,[2]; [27],71 MFI
same,fluorescence intensity,[3]; [28],15.5 MFI
same,fluorescence intensity,[3]; [29],18 MFI
same,fluorescence intensity,[3]; [22],17.5 MFI
same,fluorescence intensity,[3]; [23],15.5 MFI
same,fluorescence intensity,[3]; [24],16 MFI
same,fluorescence intensity,[3]; [25],16.5 MFI
same,fluorescence intensity,[3]; [26],22 MFI
same,fluorescence intensity,[3]; [27],64.8 MFI
same,fluorescence intensity,[4]; [28],14.5 MFI
same,fluorescence intensity,[4]; [29],15.5 MFI
same,fluorescence intensity,[4]; [22],16 MFI
same,fluorescence intensity,[4]; [23],15 MFI
same,fluorescence intensity,[4]; [24],15 MFI
same,fluorescence intensity,[4]; [25],18.5 MFI
same,fluorescence intensity,[4]; [26],44.8 MFI
same,fluorescence intensity,[4]; [27],460 MFI
same,fluorescence intensity,[5]; [28],21 MFI
same,fluorescence intensity,[5]; [29],22.5 MFI
same,fluorescence intensity,[5]; [22],22 MFI
same,fluorescence intensity,[5]; [23],22.5 MFI
same,fluorescence intensity,[5]; [24],22 MFI
same,fluorescence intensity,[5]; [25],24.5 MFI
same,fluorescence intensity,[5]; [26],31 MFI
same,fluorescence intensity,[5]; [27],44.5 MFI
same,fluorescence intensity,[6]; [28],19 MFI
same,fluorescence intensity,[6]; [29],18.5 MFI
same,fluorescence intensity,[6]; [22],18.5 MFI
same,fluorescence intensity,[6]; [23],21 MFI
same,fluorescence intensity,[6]; [24],20 MFI
same,fluorescence intensity,[6]; [25],21 MFI
same,fluorescence intensity,[6]; [26],29 MFI
same,fluorescence intensity,[6]; [27],85 MFI
same,fluorescence intensity,[7]; [28],19 MFI
same,fluorescence intensity,[7]; [29],17.5 MFI
same,fluorescence intensity,[7]; [22],17 MFI
same,fluorescence intensity,[7]; [23],17.5 MFI
same,fluorescence intensity,[7]; [24],16.5 MFI
same,fluorescence intensity,[7]; [25],19 MFI
same,fluorescence intensity,[7]; [26],22 MFI
same,fluorescence intensity,[7]; [27],46.5 MFI
same,fluorescence intensity,[8]; [28],16 MFI
same,fluorescence intensity,[8]; [29],16 MFI
same,fluorescence intensity,[8]; [22],15.5 MFI
same,fluorescence intensity,[8]; [23],16.5 MFI
same,fluorescence intensity,[8]; [24],16.2 MFI
same,fluorescence intensity,[8]; [25],17.5 MFI
same,fluorescence intensity,[8]; [26],22.8 MFI
same,fluorescence intensity,[8]; [27],57.8 MFI
same,fluorescence intensity,[9]; [28],14.5 MFI
same,fluorescence intensity,[9]; [29],16 MFI
same,fluorescence intensity,[9]; [22],15 MFI
same,fluorescence intensity,[9]; [23],16.2 MFI
same,fluorescence intensity,[9]; [24],14.2 MFI
same,fluorescence intensity,[9]; [25],15.5 MFI
same,fluorescence intensity,[9]; [26],19.5 MFI
same,fluorescence intensity,[9]; [27],23.8 MFI
4-99.2 (protein) chain 1: QVQLQESGPGLVKPSETLSLTCAVSGYSIRSAYEWGWIRQPPGKGLEYIGYISGESGNTYYSPSLKSRVTISRDTSKNQFSLRLSSVTAADSAVYYCARRGQLIGFDFWGQGVLVTVSS chain 2: QAAPTQPPSVSGSPGQSVTISCTGTSSDIGYYNAVSWYQHLPGKAPKLMIYEVSKRPSGVSDRFSGSKSGNTASLTISGLQAEDEADYYCSSYAGSNTYIFGAGTRLTVL,fluorescence intensity,[10]; [28],25.5 MFI
same,fluorescence intensity,[10]; [29],23.8 MFI
same,fluorescence intensity,[10]; [22],24.2 MFI
same,fluorescence intensity,[10]; [23],25.2 MFI
same,fluorescence intensity,[10]; [24],23.8 MFI
same,fluorescence intensity,[10]; [25],26.8 MFI
same,fluorescence intensity,[10]; [26],30 MFI
same,fluorescence intensity,[10]; [27],73 MFI
same,fluorescence intensity,[11]; [28],21 MFI
same,fluorescence intensity,[11]; [29],20.5 MFI
same,fluorescence intensity,[11]; [22],20 MFI
same,fluorescence intensity,[11]; [23],21 MFI
same,fluorescence intensity,[11]; [24],21.5 MFI
same,fluorescence intensity,[11]; [25],22.5 MFI
same,fluorescence intensity,[11]; [26],26 MFI
same,fluorescence intensity,[11]; [27],62.5 MFI
same,fluorescence intensity,[12]; [28],12.8 MFI
same,fluorescence intensity,[12]; [29],13 MFI
same,fluorescence intensity,[12]; [22],12.5 MFI
same,fluorescence intensity,[12]; [23],13.5 MFI
same,fluorescence intensity,[12]; [24],14.5 MFI
same,fluorescence intensity,[12]; [25],13 MFI
same,fluorescence intensity,[12]; [26],17.5 MFI
same,fluorescence intensity,[12]; [27],29 MFI
same,fluorescence intensity,[13]; [28],25 MFI
same,fluorescence intensity,[13]; [29],26 MFI
same,fluorescence intensity,[13]; [22],26.8 MFI
same,fluorescence intensity,[13]; [23],25 MFI
same,fluorescence intensity,[13]; [24],25 MFI
same,fluorescence intensity,[13]; [25],26.5 MFI
same,fluorescence intensity,[13]; [26],26 MFI
same,fluorescence intensity,[13]; [27],31.8 MFI
same,fluorescence intensity,[14]; [28],21 MFI
same,fluorescence intensity,[14]; [29],26.5 MFI
same,fluorescence intensity,[14]; [22],24 MFI
same,fluorescence intensity,[14]; [23],21 MFI
same,fluorescence intensity,[14]; [24],25 MFI
same,fluorescence intensity,[14]; [25],23.2 MFI
same,fluorescence intensity,[14]; [26],22.5 MFI
same,fluorescence intensity,[14]; [27],29.5 MFI
same,fluorescence intensity,[15]; [28],15 MFI
same,fluorescence intensity,[15]; [29],16.5 MFI
same,fluorescence intensity,[15]; [22],17 MFI
same,fluorescence intensity,[15]; [23],16 MFI
same,fluorescence intensity,[15]; [24],15.5 MFI
same,fluorescence intensity,[15]; [25],15.5 MFI
same,fluorescence intensity,[15]; [26],16.5 MFI
same,fluorescence intensity,[15]; [27],21 MFI
same,fluorescence intensity,[16]; [28],18.5 MFI
same,fluorescence intensity,[16]; [29],19.5 MFI
same,fluorescence intensity,[16]; [22],18.5 MFI
same,fluorescence intensity,[16]; [23],21.5 MFI
same,fluorescence intensity,[16]; [24],20.5 MFI
same,fluorescence intensity,[16]; [25],21.2 MFI
same,fluorescence intensity,[16]; [26],19.5 MFI
same,fluorescence intensity,[16]; [27],22.2 MFI
same,fluorescence intensity,[17]; [28],28 MFI
same,fluorescence intensity,[17]; [29],26.5 MFI
same,fluorescence intensity,[17]; [22],27 MFI
same,fluorescence intensity,[17]; [23],26 MFI
same,fluorescence intensity,[17]; [24],27.5 MFI
same,fluorescence intensity,[17]; [25],29.5 MFI
same,fluorescence intensity,[17]; [26],33 MFI
same,fluorescence intensity,[17]; [27],43 MFI
same,fluorescence intensity,[18]; [28],24.5 MFI
same,fluorescence intensity,[18]; [29],25 MFI
same,fluorescence intensity,[18]; [22],25.5 MFI
same,fluorescence intensity,[18]; [23],22 MFI
same,fluorescence intensity,[18]; [24],22.5 MFI
same,fluorescence intensity,[18]; [25],24.8 MFI
same,fluorescence intensity,[18]; [26],28 MFI
same,fluorescence intensity,[18]; [27],33.5 MFI
same,fluorescence intensity,[19]; [28],21.5 MFI
same,fluorescence intensity,[19]; [29],22 MFI
same,fluorescence intensity,[19]; [22],20.5 MFI
same,fluorescence intensity,[19]; [23],23 MFI
same,fluorescence intensity,[19]; [24],24 MFI
same,fluorescence intensity,[19]; [25],23.5 MFI
same,fluorescence intensity,[19]; [26],28 MFI
same,fluorescence intensity,[19]; [27],73 MFI
same,fluorescence intensity,[20]; [28],22 MFI
same,fluorescence intensity,[20]; [29],22.5 MFI
same,fluorescence intensity,[20]; [22],22 MFI
same,fluorescence intensity,[20]; [23],24 MFI
same,fluorescence intensity,[20]; [24],20.2 MFI
same,fluorescence intensity,[20]; [25],23.2 MFI
same,fluorescence intensity,[20]; [26],25.8 MFI
same,fluorescence intensity,[20]; [27],43.5 MFI
same,fluorescence intensity,[21]; [28],13 MFI
same,fluorescence intensity,[21]; [29],15 MFI

# Some of the entries above, reformatted.
binder	measurement	setting	value
4-99.1 (protein) chain 1: QVQLQESGPGLVKPSETLSLTCAVSGDSISSGYFWGWIRQPPGKGLEYIGYISGESGNTYDNPSLKSRVTISKDTSKNQFSLNLRSVTAADTAVYYCARRTVYIGFDYWGQGVLVTVSS chain 2: QAAPTQPPSVSGSPGQSVTISCTGTSSDIGYYNAVSWYQQHPGKAPKLMIYEVSKRPSGVSDRFSGSKSGTTASLTISGLQAEDEADYYCSSYAGTNTYIFGAGTRLTVL	fluorescence intensity	[3]; [27]	64.8 MFI
same	fluorescence intensity	[4]; [28]	14.5 MFI
same	fluorescence intensity	[4]; [29]	15.5 MFI
same	fluorescence intensity	[4]; [22]	16 MFI
same	fluorescence intensity	[4]; [23]	15 MFI

# Three entries from above in a different format.
binder | measurement | setting | value
4-99.1 (protein) chain 1: QVQLQESGPGLVKPSETLSLTCAVSGDSISSGYFWGWIRQPPGKGLEYIGYISGESGNTYDNPSLKSRVTISKDTSKNQFSLNLRSVTAADTAVYYCARRTVYIGFDYWGQGVLVTVSS chain 2: QAAPTQPPSVSGSPGQSVTISCTGTSSDIGYYNAVSWYQQHPGKAPKLMIYEVSKRPSGVSDRFSGSKSGTTASLTISGLQAEDEADYYCSSYAGTNTYIFGAGTRLTVL | fluorescence intensity | [2]; [29] | 15.5 MFI
same | fluorescence intensity | [6]; [29] | 18.5 MFI
4-99.2 (protein) chain 1: QVQLQESGPGLVKPSETLSLTCAVSGYSIRSAYEWGWIRQPPGKGLEYIGYISGESGNTYYSPSLKSRVTISRDTSKNQFSLRLSSVTAADSAVYYCARRGQLIGFDFWGQGVLVTVSS chain 2: QAAPTQPPSVSGSPGQSVTISCTGTSSDIGYYNAVSWYQHLPGKAPKLMIYEVSKRPSGVSDRFSGSKSGNTASLTISGLQAEDEADYYCSSYAGSNTYIFGAGTRLTVL | fluorescence intensity | [14]; [26] | 22.5 MFI
